Our source for the binding values is paper doi:10.1101/2023.01.26.525711.

The chains behind the UniProt entries cited, without tags or fusion partners. Where a name states a change or a piece, a line headed by the entry shows the natural chain unless it says otherwise.
UniProt Q38997: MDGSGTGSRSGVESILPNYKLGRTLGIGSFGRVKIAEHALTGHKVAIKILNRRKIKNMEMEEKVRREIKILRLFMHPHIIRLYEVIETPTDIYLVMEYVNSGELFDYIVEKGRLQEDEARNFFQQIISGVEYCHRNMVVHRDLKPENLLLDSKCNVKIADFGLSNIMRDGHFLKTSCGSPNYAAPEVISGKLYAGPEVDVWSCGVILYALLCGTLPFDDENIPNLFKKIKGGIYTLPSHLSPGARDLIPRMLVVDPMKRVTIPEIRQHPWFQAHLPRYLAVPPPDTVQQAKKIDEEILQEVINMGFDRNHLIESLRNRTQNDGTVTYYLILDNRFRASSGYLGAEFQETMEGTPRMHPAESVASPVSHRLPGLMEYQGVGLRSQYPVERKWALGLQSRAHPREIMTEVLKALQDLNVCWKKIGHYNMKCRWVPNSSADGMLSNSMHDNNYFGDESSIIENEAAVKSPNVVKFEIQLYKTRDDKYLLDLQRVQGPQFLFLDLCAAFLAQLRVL

These are yes or no findings as the source states them, for the method shown. Binding seen in cells or lysates may run through a third protein. A result given as binding can be weak or reduced; the word gives no strength. Sequences can lack the tags named with a protein.

For the experiment, the target named is T1, HOS1-GFP (35S::HOS1-GFP/hos1 complementation line 13-9) (Arabidopsis thaliana) (UniProt Q84JU6).
T1 sequence: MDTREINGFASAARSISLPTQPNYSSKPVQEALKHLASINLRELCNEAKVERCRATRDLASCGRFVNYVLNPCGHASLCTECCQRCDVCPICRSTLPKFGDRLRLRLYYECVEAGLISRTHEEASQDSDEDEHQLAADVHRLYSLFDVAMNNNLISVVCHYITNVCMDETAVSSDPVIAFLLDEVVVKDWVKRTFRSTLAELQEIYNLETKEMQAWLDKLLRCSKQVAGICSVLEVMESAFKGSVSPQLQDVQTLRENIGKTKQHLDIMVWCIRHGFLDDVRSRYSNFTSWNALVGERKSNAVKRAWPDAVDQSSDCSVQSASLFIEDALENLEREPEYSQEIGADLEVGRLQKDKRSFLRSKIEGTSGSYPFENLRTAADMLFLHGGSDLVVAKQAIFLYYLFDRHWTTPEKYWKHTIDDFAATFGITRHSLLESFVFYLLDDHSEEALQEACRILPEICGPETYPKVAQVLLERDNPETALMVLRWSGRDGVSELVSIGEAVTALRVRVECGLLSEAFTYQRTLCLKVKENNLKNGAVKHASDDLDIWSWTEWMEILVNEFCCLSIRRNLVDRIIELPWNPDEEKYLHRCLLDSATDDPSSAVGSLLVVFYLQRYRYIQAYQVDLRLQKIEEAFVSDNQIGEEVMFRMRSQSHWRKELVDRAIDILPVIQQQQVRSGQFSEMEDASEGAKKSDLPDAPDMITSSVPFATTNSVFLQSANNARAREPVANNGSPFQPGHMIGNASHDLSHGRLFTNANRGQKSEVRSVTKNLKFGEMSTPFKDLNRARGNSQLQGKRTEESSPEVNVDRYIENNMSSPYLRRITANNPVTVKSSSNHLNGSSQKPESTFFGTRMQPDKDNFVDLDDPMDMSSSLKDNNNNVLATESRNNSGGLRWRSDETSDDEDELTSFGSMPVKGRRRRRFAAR
In words: co-IP.

“SnRK1α1 catalytic subunit, endogenous (from UniProt Q38997)”: the binding result was “binds”.
